Assay results from PubChem BioAssay AID330 (DTP/NCI, 2004).
The list does not hold the whole screen: it is rich in T/C values a quarter to a half above the control, in often repeated tests (any T/C) and in doses without a T/C. Other doses and runs of a compound stand elsewhere. T/C is the treated group as % of the vehicle group. Some doses have a count of surviving animals in place of a T/C: the source files T/C as zero there, which appears to mark a toxic dose or a test without result, not a measured value. Some doses without a T/C left all or most animals alive at the check, yet need not have been tolerated: survival well below the control is almost never listed, so the zero probably covers shortened survival too. Survivors were counted at the toxicity check, usually on the fifth day, unless a day is given; later deaths do not show. Schedules are NCI's codes, read here as Q, the interval in days (D) or hours (H), X, the number of doses. Where survival is the endpoint, the PubChem record calls one and a half times the control and up active, and a quarter to a half above the control has no call in these data; cut-offs in other NCI protocols can differ.

System: P388 leukemia ip, CD2F1 mice, survival T/C
Assay: NCI In Vivo Anticancer Drug Screen. Data for tumor model P388 Leukemia (intraperitoneal) in CD2F1 (CDF1) mice
Settings: T/C endpoint: median survival time, higher T/C = longer survival
[1] = dose: 60.0 mg/kg/injection, schedule: Q01DX005 (ip), vehicle: Klucel (hydroxypropylcellulose) (HPC)
[2] = dose: 120.0 mg/kg/injection, schedule: Q01DX005 (ip), vehicle: Klucel (hydroxypropylcellulose) (HPC)
[3] = dose: 240.0 mg/kg/injection, schedule: Q01DX005 (ip), vehicle: Klucel (hydroxypropylcellulose) (HPC)
[4] = dose: 60.0 mg/kg/injection, schedule: Q01DX005 (ip), vehicle: saline with Tween-80
[5] = dose: 120.0 mg/kg/injection, schedule: Q01DX005 (ip), vehicle: saline with Tween-80
[6] = dose: 240.0 mg/kg/injection, schedule: Q01DX005 (ip), vehicle: saline with Tween-80
[7] = dose: 200.0 mg/kg/injection, schedule: Q01DX001 (ip), vehicle: saline with Tween-80
[8] = dose: 400.0 mg/kg/injection, schedule: Q01DX001 (ip), vehicle: saline with Tween-80
[9] = dose: 200.0 mg/kg/injection, schedule: Q01DX005 (ip), vehicle: saline
[10] = dose: 25.0 mg/kg/injection, schedule: Q01DX009 (ip), vehicle: saline with Tween-80
[11] = dose: 200.0 mg/kg/injection, schedule: Q01DX009 (ip), vehicle: saline with Tween-80
[12] = dose: 50.0 mg/kg/injection, schedule: Q01DX009 (ip), vehicle: saline with Tween-80
[13] = dose: 400.0 mg/kg/injection, schedule: Q04DX003 (ip), vehicle: saline with Tween-80

## N=C(N)c1ccc(Nc2ccc(-c3cc4ccc(C(=N)N)cc4[nH]3)cc2)cc1
dose: 3.75 mg/kg/injection, schedule: Q01DX005 (ip), vehicle: Klucel (hydroxypropylcellulose) (HPC)
  T/C: 126 % of control
dose: 30.0 mg/kg/injection, schedule: Q01DX005 (ip), vehicle: Klucel (hydroxypropylcellulose) (HPC)
  survivor count: 6 of 6
[1]
  survivor count: 3 of 6
[2]
  survivor count: 0 of 6
[3]
  survivor count: 0 of 6

## Oc1cccc(NCNC2Nc3ccccc3N2)c1
[4]
  survivor count: 6 of 6
[5]
  survivor count: 6 of 6
[6]
  survivor count: 6 of 6

## Cc1cc2ncc(-c3ccccc3)nc2cc1C
[7]
  survivor count: 6 of 6
[8]
  survivor count: 6 of 6

## C[CH2][Sn]([CH2]C(=O)OC)([CH2]C(=O)OC)[c]1ccccc1
dose: 12.5 mg/kg/injection, schedule: Q01DX005 (ip), vehicle: saline
  T/C: 139 % of control
dose: 50.0 mg/kg/injection, schedule: Q01DX005 (ip), vehicle: saline
  T/C: 143 % of control
dose: 100.0 mg/kg/injection, schedule: Q01DX005 (ip), vehicle: saline
  survivor count: 0 of 6
[9]
  survivor count: 0 of 6

## O=C(OCCOc1ccc(C(F)(F)F)cc1[N+](=O)[O-])c1ccc(Cl)cc1Cl
[4]
  survivor count: 6 of 6
[5]
  survivor count: 6 of 6
[6]
  survivor count: 6 of 6

## O=[N+]([O-])c1cc([N+](=O)[O-])c(Cl)s1
[10]
  survivor count: 4 of 6

## CN(C(=O)c1cc2c(cc1Br)OCO2)c1ccccc1
dose: 200.0 mg/kg/injection, schedule: Q01DX009 (ip), vehicle: other
  survivor count: 2 of 6
dose: 400.0 mg/kg/injection, schedule: Q01DX009 (ip), vehicle: other
  survivor count: 0 of 6

## CC(OS(C)(=O)=O)C(Br)C(Br)C(C)OS(C)(=O)=O (centres undefined)
dose: 50.0 mg/kg/injection, schedule: Q01DX001 (ip), vehicle: Klucel (hydroxypropylcellulose) (HPC)
  T/C: 145 % of control

## CCOC(=O)CCC(NC(=O)c1ccc(NS(=O)(=O)c2ccc(C)cc2)cc1)C(=O)OCC (centres undefined)
[10]
  survivor count: 6 of 6

## O=C(O)C1C(C(=O)O)C2(Cl)C(Cl)=C(Cl)C1(Cl)C2(Cl)Cl.[Cu+2] (centres undefined)
dose: 200.0 mg/kg/injection, schedule: Q01DX001 (ip), vehicle: saline sonified
  survivor count: 0 of 6

## CCOC1=N[C@H](C)[C@H](C)N1
[9]
  survivor count: 0 of 6

## NNC(=O)Cc1cccc2ccc(Cl)cc12
[3]
  survivor count: 5 of 6

## COc1ccc2c(c1)[C@]13CCN(C)[C@H](C2)[C@@H]1CCC1(C3)OCCO1
[8]
  survivor count: 0 of 6

## CN(C)c1ccc(N2C(N)=NC(N)=NC2(C)C)cc1
dose: 120.0 mg/kg/injection, schedule: Q01DX005 (ip), vehicle: saline
  survivor count: 0 of 6
dose: 240.0 mg/kg/injection, schedule: Q01DX005 (ip), vehicle: saline
  survivor count: 0 of 6

## CC(=O)Nc1ccc(C(F)(F)F)cc1
dose: 200.0 mg/kg/injection, schedule: Q01DX009 (ip), vehicle: suspension in saline
  survivor count: 3 of 6

## C[N+]1(CC2CC2)C2CC(OC(=O)C(CO)c3ccccc3)CC1C1OC12 (centres undefined)
dose: 200.0 mg/kg/injection, schedule: Q01DX009 (ip), vehicle: saline
  survivor count: 0 of 6

## CCCCC/C(C=C(C#N)C#N)=C/c1ccccc1
[10]
  survivor count: 6 of 6
dose: 100.0 mg/kg/injection, schedule: Q01DX009 (ip), vehicle: saline with Tween-80
  T/C: 143 % of control
[11]
  survivor count: 5 of 6

## COc1ncnc2nc(Cl)[nH]c12
dose: 200.0 mg/kg/injection, schedule: Q01DX005 (ip), vehicle: Klucel (hydroxypropylcellulose) (HPC)
  survivor count: 5 of 5

## O=C1NC(=O)C(F)[CH]([Ge](=[O])[O][Ge](=[O])[CH]2NC(=O)NC(=O)C2F)N1 (centres undefined)
dose: 400.0 mg/kg/injection, schedule: Q04DX002 (ip), vehicle: water
  survivor count: 0 of 6

## N=Cc1c(O)n(C2CCCCC2)c(=O)[nH]c1=O
[11]
  survivor count: 6 of 6

## COc1ccc2cc1Oc1ccc(cc1)CC1c3cc(c(OC)cc3CCN1C)Oc1c(OC)c(OC)c(O)c3c1C(C2)N(C)CC3 (centres undefined)
[7]
  survivor count: 3 of 6
[8]
  survivor count: 0 of 6

## Cc1cc(NC(=O)NCc2ccc(N3C(N)=NC(N)=NC3(C)C)cc2)ccc1S(=O)(=O)F
[10]
  T/C: 127 % of control
[12]
  T/C: 144 % of control
dose: 50.0 mg/kg/injection, schedule: Q04DX003 (ip), vehicle: saline
  T/C: 127 % of control
dose: 100.0 mg/kg/injection, schedule: Q04DX003 (ip), vehicle: saline
  T/C: 136 % of control

## O=C(O)C(Cc1ccc(O)cc1)NSc1ccccc1[N+](=O)[O-] (centres undefined)
dose: 400.0 mg/kg/injection, schedule: Q01DX009 (ip), vehicle: water
  survivor count: 3 of 6

## C[C@]12CCCC[C@@H]1CC[C@@H]1[C@@H]2[C@@H](O)C[C@@]2(C)[C@H]1CC[C@]2(C)O
[13]
  survivor count: 1 of 6

## C1COCCOCCOCCOCCO1.[Br][Sn]([Br])([Br])[Br]
[1]
  survivor count: 6 of 6
[2]
  survivor count: 6 of 6
[3]
  survivor count: 4 of 6

## CC1(C)O[C@@H]2C[C@H]3[C@@H]4CCC5=CC(=O)CC[C@]5(C)[C@@]4(F)[C@@H](O)C[C@]3(C)[C@]2(C(=O)CO)O1
[12]
  survivor count: 6 of 6

## CCN(CC)CCC(O)c1ccc(Cl)c2ccccc12 (centres undefined)
[9]
  survivor count: 0 of 5

## CC1=NCCN=C(C)C1N=Nc1ccccc1
[13]
  survivor count: 0 of 6

## O=C(C(Br)C(Br)c1ccccc1)N1CCOCC1 (centres undefined)
[11]
  T/C: 127 % of control
dose: 400.0 mg/kg/injection, schedule: Q01DX009 (ip), vehicle: saline with Tween-80
  T/C: 140 % of control

## C=CC1CCCC[S+]1CC(=O)OCC (centres undefined)
dose: 200.0 mg/kg/injection, schedule: Q04DX002 (ip), vehicle: saline with Tween-80
  survivor count: 5 of 6
dose: 400.0 mg/kg/injection, schedule: Q04DX002 (ip), vehicle: saline with Tween-80
  survivor count: 0 of 6
